Assay results reported in patent US20230302073A1, “BOTANICAL EXTRACTION” (Performance Labs Pte. Ltd., priority 2022, published 2023).
Values after ≈ are worked out from the molar mass of the structure shown. At least one compound was matched to its structure with a doubt left.

Experiment: DPPH radical scavenging (antioxidant) assay
Type: biochemical
Settings: reference standards and yerba mate extracts by solvent (Table 10)

## C[C@@H]1O[C@@H](OC[C@H]2O[C@@H](Oc3c(-c4ccc(O)c(O)c4)oc4cc(O)cc(O)c4c3=O)[C@H](O)[C@@H](O)[C@@H]2O)[C@H](O)[C@H](O)[C@H]1O [rutin]
  IC50: 246.76 µg/mL (≈ 404 µM)
